The results in this text go back to ChEMBL document CHEMBL4602644, “Synthesis of PJOV56, a new quinoxalinyl-hydrazone derivative able to induce autophagy and apoptosis in colorectal cancer cells, and related compounds” (Bioorg Med Chem Lett, 2020).

Assay [1] concerns HepG2. Put plainly: Cytotoxicity against human HepG2 cells assessed as reduction in cell viability measured after 72 hrs by MTT assay. In kind it is functional, cell-based. The settings on record: HepG2, 72 h.
The subject of assay [2] is K562. As to the kind of experiment: Cytotoxicity against human K562 cells assessed as reduction in cell viability measured after 72 hrs by MTT assay. In kind it is functional, cell-based. The settings on record: K562, 72 h.

Regarding `COc1cccc2c1C(=O)c1c(O)c3c(c(O)c1C2=O)C[C@@](O)(C(=O)CO)C[C@@H]3O[C@H]1C[C@H](N)[C@H](O)[C@H](C)O1` [DOXORUBICIN], the IC50 in assay [1] was determined as 210 nM; in assay [2], 460 nM.
